Assay results reported in PubChem BioAssay AID1794844 (National Center for Advancing Translational Sciences (NCATS), 2023).
Screen size: about 2,800 compounds; fewer than 10 were called active. Not shown: some 7% with an inconclusive outcome. The call rests on the fitted dose curve; in most records, active means well fitted inhibition curve with a large enough effect; inconclusive means small, poorly fitted or top-dose-only effect; inactive means no such curve, though single readings can be large or run the other way. The list shows a part of the results.

Amino acid sequences for entries named in this document (tags omitted). A change or cut given only in a name is not applied to a line headed by its entry.
UniProt C7C422: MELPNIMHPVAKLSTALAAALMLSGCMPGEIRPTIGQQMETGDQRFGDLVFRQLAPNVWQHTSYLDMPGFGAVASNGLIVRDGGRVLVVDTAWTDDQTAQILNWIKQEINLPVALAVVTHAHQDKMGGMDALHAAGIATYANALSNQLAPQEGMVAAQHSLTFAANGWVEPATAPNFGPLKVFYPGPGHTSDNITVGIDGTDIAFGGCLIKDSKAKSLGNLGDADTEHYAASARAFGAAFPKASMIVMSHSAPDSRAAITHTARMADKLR

target: Metallo-beta-lactamase type 2 (Klebsiella pneumoniae) (UniProt C7C422); test: qHTS to identify inhibitors of the New Delhi Metallo-beta-lactamase (NDM): Nitrocefin screen against the machine-based learning selections.; on activity, negative = inhibition: % of control where 0% means no effect; conditions: NDM-1 enzyme, nitrocefin hydrolysis, absorbance 485 nm; activity, negative = inhibition: at the top concentration
Outline: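 Hydrolysis by 2 nM NDM-1 was followed by absorbance after >30 min compound preincubation in HEPES pH 7.0 buffer with 1 uM Zn2SO4. For nitrocefin (16.7 uM, 15 min, 485 nm) and meropenem (50 uM, 30 min, 300 nm), each substrate ran on separate plates.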
Potency means the concentration at half of the fitted maximal effect.

activity, negative = inhibition, inactive:
CC[C@@]1(O)CCN(C(=O)c2cccc(CCC(C)(C)O)c2)C[C@H]1O 8.67%
O=C(Cc1c[nH]c2ncc(-c3cccc(CO)c3)cc12)NCc1cccnc1 2.11% [at 57.5 µM]
CN(CCO)C[C@@H]1CN(C(=O)c2nc3ccccc3[nH]c2=O)C[C@@H]1CO -4.62%
CN1[C@@H](CCC(=O)N2CCN(c3ccccc3)CC2)CNC(=O)[C@@H]2[C@H]1CCN2CC(C)(C)C 9.96%
O=C(N[C@H](c1cccs1)C1CC(O)C1)C1CCN(C2CCOCC2)CC1 (some centres not stated) 2.3%
COc1ccc(C(=O)N[C@H](Cc2ccccn2)C2CC(O)C2)cc1F (some centres not stated) -4.5%
Cc1noc2c(Nc3ccc(C(N)=O)cc3)cc(-c3ccc(F)cc3)nc12 -6.6% [at 57.5 µM]
O=C(c1ccc2nccnc2c1)N1CCC2(CC1)Nc1ccccc1NC2=O -1.49%
c1ccc(CN2CC(CNc3cccnc3)C3(C2)CN(c2ccccc2)C3)cc1 (configuration not stated) 4.4% [at 57.5 µM]
CC(C)NC(=O)C[C@@H]1C[C@H]2O[C@H](CNCc3cnccc3Cl)[C@@H](O)[C@H]2O1 -2.18% [at 57.5 µM]
Fc1ccc(-c2cnc([C@@H]3COCCN3C3CCC3)[nH]2)cc1 -4.73% [at 57.5 µM]
O=C(Nc1ccc2c(c1)OCO2)C1CCc2sc(C(=O)N3CCCC3)cc2C1 (configuration not stated) 1.17%
Cc1cccc(Nc2nc(N)nc(CN3CC[C@@H](N)[C@H](O)C3)n2)c1 -0.926%
CN(C)C(=O)N1CCCn2nc(CNC(=O)c3ccc4[nH]ccc4c3)cc2C1 -5.54%
Cc1ccc(-c2cc(O)c3c(c2)CNCCO3)s1 19.1%
COc1ccc(CNC(=O)[C@@H]2Cc3nc[nH]c3CN2Cc2ccc(Cl)cc2)cc1 -15.5% [at 57.5 µM]
Cc1ccc(-n2nc(C)c([C@@H]3C=C[C@@H](NCc4cccc(C#N)c4)C3)c2C)cc1Cl 2.91% [at 57.5 µM]
O=C(Cc1ccc(OC(F)(F)F)cc1)N1CC2CC(C1)[C@H]1CCCC(=O)N1C2 (some centres not stated) 2.47%
CCCNC(=O)N[C@@H]1CCC[C@@H](C(=O)NCc2ccc(OC)cc2)CC(=O)N(C)C1 11.5% [at 57.5 µM]
Cc1c(C(=O)NC2CC(c3nnc(CO)n3C3CC3)C2)n(C)c2c(C)cccc12 (configuration not stated) -1.03%
COc1ccc(C(=O)N2CCC3(CC2)CC(OCC2CC2)CCO3)cn1 (configuration not stated) 6.06%
NC(=O)Cc1c[nH]c2ncc(-c3ccccc3F)cc12 3.53% [at 76.7 µM]
COCC(=O)N[C@@H]1CN(Cc2ccc(C)cn2)C[C@H]1CO -1.26%
CCNC(=O)N[C@@H]1C=C[C@@H](c2c(C)nn(-c3ccc(OC)cc3)c2C)C1 -0.984% [at 57.5 µM]
COCCc1noc(CN(C)c2cc(C(C)C)nc3ccnn23)n1 -9.25%
CC(C)(C)c1cc(CC2(NCc3ccc(Cl)cc3)COC2)no1 1.47% [at 57.5 µM]
CCOCC(=O)N1CCn2nc(Cc3ccccc3)cc2C1 1.4%
COc1ccc2[nH]c(C[C@@H]3C[C@@H](C(C)C)[C@H](CN(Cc4ccccn4)Cc4ccccn4)C=C3C)nc2n1 29.4%
CC(C)(C)c1ccc2oc(CNC(=O)CN3C(=O)CNC3=O)nc2c1 1.4%
O=C(O)c1cccc([S+](=O)([O-])N2CC(CNC(=O)c3ccccc3)C3(CN(c4ccccc4)C3)C2)c1 (configuration not stated) -5.82%
CCN1CCN(C2(C(=O)NCCc3ccccc3)Cc3ccccc3C2)CC1 -0.956%
CC1(C(=O)NCc2cccnc2)CCc2cnc(NCc3ccccc3)nc21 (configuration not stated) -9.35% [at 57.5 µM]
CC(=O)Nc1ccc(CC(=O)N2CCC(C)(c3noc(C)n3)CC2)cc1 -0.638%
CC(C)Nc1ncc(C(=O)NC2CCCN(CCc3ccccc3)C2)cn1 (configuration not stated) 3.55%
CC[C@@]1(C(=O)O)C[C@H](C(=O)NC(CO)CO)[C@H](c2ccc(F)cc2)N1C -7.83%
CC(C)(C)CC(=O)N[C@H]1C[C@H]2C(=O)Nc3ccc(-c4cccs4)cc3C(=O)N2C1 1.84% [at 57.5 µM]
CS(=O)(=O)N1CCC(C2CCN(C(=O)Cc3cccs3)C2)CC1 (configuration not stated) -0.833%
O=C(NCCc1ccc(Cl)cc1)c1nc(-c2cc(Cl)cc(Cl)c2)c2ccccn12 -5.46%
CN(C)c1ccc(-c2nnc([C@H]3CCN(CC4CC4)C3)o2)cc1 3.42% [at 57.5 µM]
CC(Cn1cncn1)NC(=O)c1ccc(CCC(C)(C)O)cc1 (configuration not stated) 1.28%
CCC(C)(C)C(=O)N1CC2CC(C1)[C@H]1CCCC(=O)N1C2 (some centres not stated) -1.47%
CCC(N)(CC)c1cn(CC2CCCN(S(C)(=O)=O)C2)nn1 (configuration not stated) -17%
CC(=O)N1CCN(Cc2ccc(F)c(C(F)(F)F)c2)CC(O)C1 (configuration not stated) -4.75%
CCN1C(=O)C2CC3(CCN(C(=O)CCc4c(C)nn(C)c4C)CC3)CN2C1=O (configuration not stated) -4.57%
CCNC(=O)O[C@@H]1CO[C@H]2[C@@H]1OC[C@@H]2NC(=O)Nc1ccc(C(C)C)cc1 -8.42% [at 57.5 µM]
O=C(CCc1ccccc1)N1CC[C@H]2COC(=O)N2c2cc(F)ccc2C1 -1.79% [at 57.5 µM]
CC[C@H]1CN(C(=O)Nc2cccc(OC)c2)CC[C@H]1CC(=O)NCc1cccnc1 -4.68% [at 57.5 µM]
COCCOc1ccnc(-c2noc([C@@H]3CCCN3Cc3ccc4c(c3)OCO4)n2)c1 11.4% [at 57.5 µM]
OCc1cccc(-c2ccc3ncc(Nc4ccc(OCCN5CCCC5)cc4)n3n2)c1 4.15% [at 57.5 µM]
Cc1nn(-c2ccc(C(C)(C)C)cc2)c(C)c1[C@@H]1C=C[C@@H](NC(=O)c2ccco2)C1 -6.21% [at 57.5 µM]
CC(C)(C)C(=O)N1CC[C@@H](CC(=O)O)[C@@H](CC2=NCCc3cc(F)ccc32)C1 -17.5% [at 57.5 µM]
Cn1ccc(C(=O)N2CC(CNC(=O)Nc3ccccc3)C3(C2)CN(c2ccccc2)C3)n1 (configuration not stated) 2%
COCCN1CCC(CN(C)C2CCNCC2)C1 (configuration not stated) 0.278%
CCc1ccc(NC(=O)C2CCN(C(=O)c3nnn4cc(C)[nH]c(=O)c34)CC2)cc1 -1.83%
Cc1cc(=O)n(CC(=O)Nc2ccc(C)c(Cl)c2)c(N2CCN(c3ccccc3)CC2)n1 -7.15%
COc1ccc(C(=O)Nc2ccc([C@@H](O)[C@H]3COCC(=O)N3Cc3ccc(F)cc3)cc2)cc1OC 3.36%
O=C(c1cc(F)ccc1F)N1CCN(c2cc(-c3ccc(Cl)cc3)[nH]n2)CC1 298%
CCc1nc2c(c(-c3ccc(Cl)cc3)n1)CN(S(=O)(=O)c1ccccc1)CC2 -1.07%
CCCn1ccc2oc(C)c(C(=O)NCc3ccc(CC)cc3)c2c1=O 3.92%
CN1[C@@H](CCC(=O)Nc2ccccc2)CNC(=O)[C@@H]2[C@H]1CCN2Cc1nc2ccccc2n1C -5.21%
CN(Cc1ccccc1)C(=O)C[C@@H]1O[C@H](CNCc2ccc(F)cc2)[C@@H](O)[C@H]1O -1.97% [at 57.5 µM]
O=c1cc(CNCc2nc(-c3ncccn3)no2)[nH]c2ccc(F)cc12 -23.6%
Fc1ccc2c(c1)nc1n2[C@@H](CNC2CCC2)COC1 -8.12% [at 76.7 µM]
COc1ccccc1CN1C(=O)COC[C@@H]1[C@H](O)c1ccc(NC(=O)CCc2ccccc2)cc1 5.98%
OC(c1cccc(C(F)(F)F)c1)c1nc(Nc2ccccc2)n[nH]1 (configuration not stated) 2.34% [at 57.5 µM]
COCCN1C(=O)[C@@H]2C[C@@H](CN2Cc2ccccc2)Oc2ccccc21 -9.33% [at 57.5 µM]
O=C(NC1CC(c2cc(NCCO)ncn2)C1)c1cc2ccccc2[nH]1 (configuration not stated) 3.05%
O=C(NCc1ccccc1)N1CCCCC1c1nc(-c2cnccn2)n[nH]1 (configuration not stated) -16.4%
O=C(NCc1ccc(Cl)cc1)[C@@H]1Cc2nc[nH]c2CN1Cc1ccc(Cl)cc1 -13.9% [at 57.5 µM]
CNC(=O)N1CCC(C2CCN(Cc3ccc(Br)o3)C2)CC1 (configuration not stated) -4.75%
Cc1noc([C@@H]2CNC[C@H]2CO)n1 0.709%
CC(=O)N[C@@H]1Cc2ccccc2[C@H]1n1ccnc1-c1cc2n(n1)CCNC2 -4.6%
O=C(NCc1ccc(F)cc1)c1cnc2n[nH]c(-c3ccccc3)c2n1 -3.23% [at 57.5 µM]
Cc1ccc(S(=O)(=O)N[C@H]2CO[C@H]3[C@@H]2OC[C@@H]3Nc2nccc(C(C)(C)C)n2)cc1 0.29% [at 57.5 µM]
Cc1ccccc1Oc1ncccc1CNCc1cccc(O)c1 0.866%
CCCc1nnc([C@H]2CCN(Cc3ccc(C)o3)C2)o1 22.7% [at 76.7 µM]
CC(C)NC(=O)N[C@H]1C[C@@H](Cc2cc(-c3ccccc3)on2)C1(C)C 2.2% [at 57.5 µM]
O=C(c1ccc(OC(F)F)cc1)N1CCCC(O)(CN2CCCC2)C1 (configuration not stated) -3.33%
Cc1nnc([C@@H]2CC(F)(F)CN2C(=O)c2ccc3ncccc3c2)o1 -3.64%
C=CCN(C)C(=O)[C@@H](C)C1CC[C@@]2(C)Cc3sc(CSc4ccccc4)nc3[C@@H](C)[C@@H]2[C@H]1O (some centres not stated) -5.99%
Cc1ccc(OC2(C(=O)N[C@H]3CCc4ccccc43)CCNCC2)cc1 1.14%
NC(=O)c1cccc(-c2ccc3c(n2)CN(Cc2nc4ccccc4s2)C(=O)CO3)c1 3.32% [at 57.5 µM]
CC1(COc2ccccc2)COc2ccc(C(=O)NCCc3cnc[nH]3)cc2N1 (configuration not stated) -6.78% [at 57.5 µM]
COc1ccc(CN2C[C@@H](CO)[C@H](C3CCN(C(C)=O)CC3)C2)cc1C -4.27%
N#Cc1cccc(CN2Cc3[nH]cnc3C[C@H]2c2nc(-c3ccc(OC(F)(F)F)cc3)no2)c1 -9.01%
CCNC(=O)Cc1c[nH]c2ncc(-c3ccccc3C)cc12 -6.6% [at 57.5 µM]
Cc1nc(CC(=O)N2CC[C@@H](NC(=O)c3cnccn3)[C@H](O)C2)cs1 -6.1%
COc1ccc(C(=O)N2CCC(=O)N(Cc3ccc(F)cc3)C(C(C)C)C2)o1 (configuration not stated) -2.36%
COc1cc(NC(=O)Cn2nc3c(cc2=O)CCCCC3)cc(OC)c1OC -5.13%
Cc1cccc(O[C@H]2COCCN(Cc3ccccn3)C2)n1 -0.933% [at 57.5 µM]
O[C@H]1CC[C@@H](Cc2cc(COc3ccccc3)on2)O[C@@H]1CNC1CCOCC1 5.65% [at 57.5 µM]
CC(C)(O)c1cc(CC2(NCc3cnc4ccccc4c3)COC2)no1 0.81% [at 57.5 µM]
CC1(C(=O)Nc2ccccc2)COCc2cnc(Nc3ccccc3)nc21 (configuration not stated) 4.32% [at 57.5 µM]
CC(C)Oc1ccc2c(NC(=O)c3ncc(F)cc3F)nn(CC(F)(F)F)c2c1 10.8%
CN1C[C@@H](NC(=O)c2ccc(C(C)(C)C)cc2)C[C@H]1c1nc(-c2ccncc2)no1 1.53% [at 57.5 µM]
C[C@]1(CO)[C@H]2Cc3sc(NC(=O)C4CCCCC4)nc3[C@@H](CC(=O)N3CCOCC3)[C@]2(C)CC[C@H]1O -1.71%

In the list so far, 5 contain a furan ring, fused or not.
activity, negative = inhibition, inactive:
Cc1nn(-c2ccc(C(C)(C)C)cc2)c(C)c1[C@@H]1C=C[C@@H](NC(=O)c2ccco2)C1 -6.21% [at 57.5 µM]
CCCn1ccc2oc(C)c(C(=O)NCc3ccc(CC)cc3)c2c1=O 3.92%
CNC(=O)N1CCC(C2CCN(Cc3ccc(Br)o3)C2)CC1 (configuration not stated) -4.75%
CCCc1nnc([C@H]2CCN(Cc3ccc(C)o3)C2)o1 22.7% [at 76.7 µM]
COc1ccc(C(=O)N2CCC(=O)N(Cc3ccc(F)cc3)C(C(C)C)C2)o1 (configuration not stated) -2.36%

For convenience, some entries already given:
activity, negative = inhibition, inactive:
COCCOc1ccnc(-c2noc([C@@H]3CCCN3Cc3ccc4c(c3)OCO4)n2)c1 11.4% [at 57.5 µM]
OCc1cccc(-c2ccc3ncc(Nc4ccc(OCCN5CCCC5)cc4)n3n2)c1 4.15% [at 57.5 µM]

Next part.

Potency, active:
Cc1ccccc1C1CCCN1Cc1ncccc1C(=O)O (configuration not stated) 13.4 µM
